Hit rate of the full screen: of about 410,000 compounds, about 18,000 (4.4%) were called active. This list was built around the results that the source calls inconclusive (neither active nor inactive); the mix of calls is not that of the screen. Rule as the data show it: active = activity change below about -60%; inconclusive = no clear call, values can overlap the other calls; inactive = above about -39%.
Test: qHTS Assay for inhibitors of the human cytomegalovirus (HCMV)
Settings: HFF cells, HCMV-luciferase reporter, 72 h; at 57.5 µM; hits give low values
Procedure, shortened: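 HFF cells seeded 16 h at 37C, treated with compounds, infected with luciferase-reporter HCMV at MOI 1 PFU/cell; luciferase read at 72 h post infection, normalized to buffer-only and Salinomycin controls.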
% is scaled to controls: 0 for no effect and ±100 for the full control effect.

Structure (SMILES)	activity change, negative = inhibition
Cc1ccc(NC(=O)COc2ccc(CCO)cc2-n2nc3ccccc3n2)cc1C	inconclusive: -47.4%
COc1ccccc1CNC(=O)Nc1ccc2c(c1)N(C)C(=O)c1ccccc1S2	inconclusive: -47.6%
COc1ccc(C(=O)Nc2ccc(S(=O)(=O)N3CCOCC3)cc2)cc1	inactive: -38.9%
CN(C(=O)c1cccc(Nc2ccc(-c3ccc4c(c3)OCCO4)nn2)c1)C1CCCCC1	active: -93.2%
CCOc1cc(/C=N/NC(=O)c2ccncc2)ccc1OC(=O)c1ccco1	inconclusive: -46.7%
CCCC[C@@H]1CNC(=S)N1CCC12CC3CC(CC(C3)C1)C2	inconclusive: -48%
Cc1cc(C)c(S(=O)(=O)NC2CCN(Cc3ccccc3)CC2)c(C)c1	inconclusive: -42.4%
CCCCCCCCCCCCCCCCCCNc1ccn(C2OC(COP(=O)(O)OCC3OC(n4cc(F)c(=O)[nH]c4=O)CC3O)C(O)C2O)c(=O)n1 (stereo unspecified)	active: -87.9%
COc1ccc(OC)c(CN2CCC(C(=O)N3CCN(c4ccccc4F)CC3)CC2)c1	inconclusive: -52.8%
CCOC(=O)[C@]12CCCC=C1N(Cc1cccc3ccccc13)C(=O)[C@H](CC(=O)NCC1CCCCC1)C2	inconclusive: -49.7%
COc1ccc(-c2nnn3c2nc(NCc2ccccc2)c2ccccc23)cc1	inconclusive: -59.6%
CN1CCN(NC(=O)c2ccc(Br)c(S(=O)(=O)N3CCOCC3)c2)CC1	inconclusive: -41.8%
Cc1cccc(NC(=O)C(=O)NCC(c2cccnc2)N2CCc3ccccc32)c1C (stereo unspecified)	inactive: -12.6%
CCOC(=O)c1sc2ncn(C(C)C(=O)OC)c(=O)c2c1C (stereo unspecified)	inconclusive: -43.9%
O=C1CC(N2CCN(C(c3ccccc3)c3ccccc3)CC2)C(=O)N1Cc1ccc(N2CCCC2=O)cc1 (stereo unspecified)	inactive: -6.95%
CC(=O)N1CCC(N(CCN2CCOCC2)C(=S)Nc2ccc(C)c(C)c2)CC1	inconclusive: -42.1%
Cc1ccc(C)c(NS(=O)(=O)c2cc(C(=O)NCC3CCCO3)ccc2C)c1 (stereo unspecified)	inconclusive: -45.5%
CCOC(=O)C1(Cc2ccccc2)CCN(Cc2ccc(C3CCCCO3)s2)CC1 (stereo unspecified)	inconclusive: -40.5%
CCOc1ccc(N(CC)C(=O)c2cc3c(=O)oc4ccccc4c3s2)cc1	inactive: 5.06%
CCOc1ccc(OCCCCn2ccnc2)cc1	active: -61.1%
C=C(C)COc1ccc(-c2ncncc2-c2ccc(Br)cc2)c(O)c1	inconclusive: -44.1%
Oc1ccccc1/C=N/Nc1ccccc1	inactive: -7.98%

Structure (SMILES)	activity change, negative = inhibition
c1ccc(Nc2ccccn2)cc1	inactive: -15.8%
Cc1nc(C)c(CCNS(=O)(=O)c2ccc(C)c(C)c2)s1	inactive: -12.3%
Cc1ccc(-c2ocnc2C(=O)Nc2ccccc2NC(=O)c2ccccn2)cc1	inconclusive: -58.3%
O=C(CCN1C(=O)/C(=C/c2ccccc2Cl)SC1=S)NCCc1ccc(O)cc1	active: -101%
CCOC(=O)[C@]12Cc3ccc(C)cc3[C@H]1N(C1CCCCC1)C(=O)c1ccccc12	active: -101%
Cn1cncc1C#Cc1c(-c2ccsc2)sc2ccccc12	inconclusive: -41.8%
CCN(CC)S(=O)(=O)c1ccc(C2CNC(=O)C2)cc1 (stereo unspecified)	inconclusive: -51.1%
O=C(CCc1ccncc1)NC1CCCc2c1cnn2-c1ccc(F)cc1F (stereo unspecified)	active: -73.2%
Fc1ccccc1CNC(=S)Nc1ccc(Cl)cc1	inconclusive: -43.2%
O=C(CN(Cc1ccccc1)S(=O)(=O)c1ccc(Br)cc1)NCc1ccco1	inactive: -16.8%
CC(=O)C(C)Sc1nnc(-c2ccccc2F)n1C1CC1 (stereo unspecified)	inconclusive: -41.8%
O=[N+]([O-])c1ccc(Cl)c(S(=O)(=O)Nc2cccc(-c3ccc(N4CCOCC4)nn3)c2)c1	inconclusive: -44.2%
CN(CC1COc2ccccc2O1)C(=S)NC1CCCCC1 (stereo unspecified)	inconclusive: -45.7%
CC(C)N(C(=O)N1CCN(c2ccnc3cc(Cl)ccc23)CC1)C(C)C	active: -89.8%
N#Cc1c(NCCN)nc(-c2ccco2)c2c1CCCC2	inconclusive: -42%
Cc1cc(C)nc(SCC(=O)Nc2cc(C)on2)n1	inactive: 3.22%
C=CCNC(=S)/N=c1/ccccn1C	active: -98.2%
CCC(C(=O)NC1CCCC1)N(C(=O)Cn1nnc(-c2ccc(C)o2)n1)c1cccc(O)c1 (stereo unspecified)	inconclusive: -41.7%
CCCc1cc2c(=O)c(-c3ccc4c(c3)OCCO4)coc2cc1OS(C)(=O)=O	active: -60.2%
Cc1cccc(C)c1N=Nc1c(C)cc(O)cc1C	inconclusive: -52.9%
Cc1cc(NC(=O)CN(C)S(=O)(=O)c2ccc3c(c2)CCCC(=O)N3)ccc1Br	inconclusive: -57.6%
O=C1OCC2=C1C(c1ccc(F)cc1)c1cc3c(cc1N2)OCO3 (stereo unspecified)	active: -92.9%

Structure (SMILES)	activity change, negative = inhibition
Cc1ccc(-c2cc(-c3n[nH]c(=S)n3C)c3ccccc3n2)cc1	inconclusive: -41.1%
CCOC(=O)C1=C(Nc2cccc(Cl)c2)OCC1=O	inactive: -28.5%
O=C(O)c1cccc2c1C(=O)c1ccc(-c3ccc(F)cc3F)cc1S2(=O)=O	active: -61.5%
CCCCNC(=O)[C@@H]1CSC2c3ccc(OC)c(OC)c3C(=O)N21 (stereo partly specified)	inconclusive: -43.2%
Oc1ccc(Cl)c(CN2CCN(c3ncc(Cc4ccccc4)cn3)CC2)c1	inconclusive: -55.6%
O=c1c2sc3ccccc3c2n(Cc2ccc(F)cc2)c(=O)n1Cc1ccccc1	inactive: 12.1%
Cc1ccc(C(C)C)c(OCCNC(=S)Nc2cccc3ccccc23)c1	inactive: -24.8%
COc1ccc([C@H]2C[C@H](O)[C@@H](n3cc(COC(=O)c4ccccc4)nn3)CN2CC2CCCCC2)cc1	active: -89.6%
O=C(C1CCCC1)N1CCN=C1SCc1cccc([N+](=O)[O-])c1	inactive: -17.6%
N=c1c(C(=O)NCC2CCCO2)cc2c(=O)n3ccccc3nc2n1C1CCCC1 (stereo unspecified)	inactive: 4.82%
COc1cc(CNC2CCCC2)cc(Cl)c1OCc1ccc(F)cc1	inactive: 33.7%
CN1CCN(C(=O)COc2ccc(Oc3ccccc3)cc2)CC1	inconclusive: -47.6%
CCCCN(C(=O)c1cc(S(=O)(=O)N2CCCCCC2)ccc1OC)c1ccccc1	inconclusive: -43.3%
COc1ccc(S(=O)(=O)NC(CC(=O)NCCc2ccc(OC)c(OC)c2)C(C)C)cc1 (stereo unspecified)	inactive: -0.453%
CCc1ccc(Oc2nnnn2-c2ccc(C(N)=O)cc2)cc1	inconclusive: -42.5%
CC(C)OC(=O)/C(C#N)=C/c1c[nH]c2ccccc12	inactive: -2.08%
Cc1ccc(S(=O)(=O)Nc2ccc(-c3ccc(N4CCCCCC4)nn3)cc2)cc1C	inactive: 12.2%
O=C(CSc1oc(-c2ccco2)nc1S(=O)(=O)c1ccc(Cl)cc1)NCC1CCCO1 (stereo unspecified)	active: -65.8%
COc1ccc(OCc2cc(C(=O)N(C)Cc3cnccn3)no2)c(Cl)c1	inconclusive: -48.5%
COc1ccc2[nH]c(C)c(CN3CCCCC3)c(=O)c2c1	inactive: -39.6%
CCOC(=O)c1c(NC(=O)c2ccccc2Cl)sc2c1CCc1ccccc1-2	inconclusive: -45.1%
Cc1ccc(OCCNC(=O)Cc2ccc(S(=O)(=O)N3CCOCC3)s2)cc1	inconclusive: -40.4%

Structure (SMILES)	activity change, negative = inhibition
COc1ccc(CN2CCC(CO)(Cc3ccccc3)CC2)cc1Cn1cccn1	inconclusive: -59.5%
O=C(NC1CCCCC1)C(c1ccc(F)cc1)N(Cc1ccco1)C(=O)c1csnn1 (stereo unspecified)	inconclusive: -50.7%
NS(=O)(=O)c1ccc(CCNC(=O)CN2CCN(c3cccc(Cl)c3)CC2)cc1	active: -88.5%
CCCCNc1c(-c2ccc(SC3CCCCC3)cc2)nc2ccccn12	inconclusive: -49.8%
Cc1[nH]c(C)c(S(=O)(=O)NCc2ccc(F)cc2)c1C(=O)N1CCCCC1	inconclusive: -46.7%
CCN(C(=O)c1ccc(=O)n(C)n1)c1c(N)n(Cc2ccccc2)c(=O)[nH]c1=O	active: -76.6%
CS(=O)(=O)Nc1cccc(-c2cn3c(n2)SCC3)c1	inactive: 19.3%
COc1ccc(-n2c(SCC#N)nc3ccccc3c2=O)cc1	inconclusive: -47.9%
Cc1cc2c(n1-c1ccc(C(=O)NCC(C)c3ccccc3)cc1)CCCC2 (stereo unspecified)	active: -61%
CC1CCN(C(=S)Nc2ccc3nc4n(c(=O)c3c2)CCCCC4)CC1	inconclusive: -55.6%
O=C(Nc1cc(S(=O)(=O)N2CCOCC2)ccc1Oc1ccc(F)cc1)C1=COCCO1	inactive: -6.92%
CC(C)CCNC(=O)c1ccc(Cn2c(=O)c3cccn3c3cccnc32)cc1	inconclusive: -47.2%
COc1ccc2nc(-c3ccccc3)nc(C3CCCCC3)c2c1	inactive: -2.79%
CCOc1ccc(CNC(=O)CCS(=O)(=O)Cc2ccccc2C)cc1OC	inconclusive: -46.3%
Cc1cc(C)c(S(=O)(=O)N(C)c2ccccc2)c(C)c1	inconclusive: -46.7%
CCOc1ccc(CCN2C(=O)C(=O)N([C@@H](Cc3ccccc3)CN3CCC[C@H]3CN3C(=O)C(=O)NC[C@@H]3Cc3ccccc3)C[C@@H]2Cc2ccc(O)cc2)cc1	inconclusive: -50.8%
COc1ccccc1OCC(=O)NCC1(N2CCOCC2)CCCCC1	inactive: 106%
O=C(NCc1cccc(Cl)c1)c1ccc(CS(=O)Cc2ccccc2Cl)o1 (stereo unspecified)	inconclusive: -46.5%
CCc1ccc(NC(=O)C2CCN(S(=O)(=O)c3cccs3)CC2)cc1	active: -64.6%
CCCCN(CC)C(=O)CSc1nc2c(sc(=S)n2-c2ccc(OCC)cc2)c(=O)[nH]1	inconclusive: -50.7%
